Laboratory results reported in patent publication US5171835A, “LHRH antagonists” (The Administrators of the Tulane Educational Fund, priority 1991, dated 1992).
Part of at least one peptide drawing is inferred or uncertain, most often the ends. Square brackets hold non-standard residues; d marks the D form. Peptide text beside a SMILES is read from it. * marks the point of attachment. X2 = O=C(NCC(NC(=O)c1ccccc1)C(=O)*)c1ccccc1; X5 = O=C(NCC(NC(=O)C1CCCCC1)C(=O)*)C1CCCCC1; dPhe(4-Cl) = N[C@H](Cc1ccc(Cl)cc1)C(=O)O; d2Nal = N[C@H](Cc1ccc2ccccc2c1)C(=O)O; d3Pal = N[C@H](Cc1cccnc1)C(=O)O

What was measured:
[1] = test system: ovulation in 4-day-cycling rats; test: In vivo antiovulatory activity in 4-day-cycling rats; parameters: species or system rat
Procedure: (b) In vivo antiovulatory activity of peptides is determined in 4-day-cycling rats as described [A. Corbin and C. W. Beattie, Endocr. Res. Commun., 2, 1-23 (1975)].

[2] = test system: perfused rat pituitary cell system (LH response to LH-RH); test: LH-RH inhibiting activity in superfused rat pituitary cell system; assay type: cell-based
Procedure: Immediately after that, a mixture containing the same concentration of peptide and 3 nM LHRH is administered for 3 min. This was followed by four consecutive infusions of 3 nM LHRH for 3 min (1 ml perfusate) at 30 min intervals (30, 60, 90, 120 min). LH content of the 1 ml fractions collected is determined by radioimmunoassay (RIA).

[3] = antagonist to LH-RH ratio 3:1, 0 min
[4] = antagonist to LH-RH ratio 3:1, 30 min
[5] = antagonist to LH-RH ratio 3:1, 60 min
[6] = antagonist to LH-RH ratio 3:1, 90 min

CC(=O)N[C@H](Cc1ccc2ccccc2c1)C(=O)N[C@H](Cc1ccc(Cl)cc1)C(=O)N[C@H](Cc1cccnc1)C(=O)N[C@@H](CO)C(=O)N[C@@H](CCCNC(=N)N)C(=O)N[C@H](CCCCNC(=O)C(CNC(=O)C1CCCCC1)NC(=O)C1CCCCC1)C(=O)N[C@@H](CC(C)C)C(=O)N[C@@H](CCCNC(=N)N)C(=O)N1CCC[C@H]1C(=O)N[C@H](C)C(N)=O (stereo partly drawn) [Peptide 5, Ac-D-Nal(2)-D-Phe(4Cl)-D-Pal(3)-Ser-Arg-D-Lys[A2 pr(CHC)2 ]-Leu-Arg-Pro-D-Ala-NH2] (Ac-[d2Nal][dPhe(4-Cl)][d3Pal]SR[dK](X5)LRP[dA]-NH2)
% Blockade of Ovulation ([1]; dose 1.5 μg): 40% | % inhibition of LH response [2, 3]: 95% | % inhibition of LH response [2, 4]: 60% | % inhibition of LH response [2, 5]: 60% | % inhibition of LH response [2, 6]: 60%

CC(=O)N[C@H](Cc1ccc2ccccc2c1)C(=O)N[C@H](Cc1ccc(Cl)cc1)C(=O)N[C@H](Cc1cccnc1)C(=O)N[C@@H](CO)C(=O)N[C@@H](CCCNC(=N)N)C(=O)N[C@H](CCCCNC(=O)C(CNC(=O)c1ccccc1)NC(=O)c1ccccc1)C(=O)N[C@@H](CC(C)C)C(=O)N[C@@H](CCCNC(=N)N)C(=O)N1CCC[C@H]1C(=O)N[C@H](C)C(N)=O (stereo partly drawn) [Peptide 6, Ac-D-Nal(2)-D-Phe(4Cl)-D-Pal(3)-Ser-Arg-D-Lys[A2 pr(Bz)2 ]-Leu-Arg-Pro-D-Ala-NH2] (Ac-[d2Nal][dPhe(4-Cl)][d3Pal]SR[dK](X2)LRP[dA]-NH2)
% Blockade of Ovulation ([1]; dose 0.75 μg): 10% | % Blockade of Ovulation ([1]; dose 1.5 μg): 20% | % inhibition of LH response ([2]; antagonist to LH-RH ratio 1:1, 0 min): 50% | % inhibition of LH response ([2]; antagonist to LH-RH ratio 1:1, 30 min): 40% | % inhibition of LH response ([2]; antagonist to LH-RH ratio 1:1, 60 min): 35% | % inhibition of LH response ([2]; antagonist to LH-RH ratio 1:1, 90 min): 30% | % inhibition of LH response [2, 3]: 82% | % inhibition of LH response [2, 4]: 63% | % inhibition of LH response [2, 5]: 60% | % inhibition of LH response [2, 6]: 55%
